# Test results: the supplement of paper PMC4604168 (melanoma cell lines)
# Some of the results follow. Single values are uncertain, as repeats are few or missing.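 The apoptosis fraction was the count of cleaved-PARP antibody-stained nuclei relative to all DNA-stained nuclei, imaged in 1,536-well plates. Screening doses were set so most cells survived, and baseline and induced cleaved-PARP levels vary greatly across cell lines.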
# Columns and labels:
# Experiment in all cases: cleaved PARP positive nuclei fraction relative to DMSO control; melanoma cells; higher = more apoptosis
# Details in all cases: library dose: low library concentration; 72 h
# [1] = system: 501Mel
# [2] = system: A101D
# [3] = system: A2058
# [4] = system: C32
# [5] = system: CBRC008 (line from a melanoma biopsy)
# [6] = system: CBRC014 (line from a melanoma biopsy)
# [7] = system: CBRC016 (line from a melanoma biopsy)
# [8] = system: CBRC017 (line from a melanoma biopsy)
# [9] = system: COLO792
# [10] = system: COLO800
# [11] = system: COLO829
# [12] = system: G361
# [13] = system: IPC-298
# [14] = system: IST-MEL1
# [15] = system: LB2518-MEL
# [16] = system: LOXIMVI
Compound,cleaved PARP positive nuclei fraction [1] [%],cleaved PARP positive nuclei fraction [2] [%],cleaved PARP positive nuclei fraction [3] [%],cleaved PARP positive nuclei fraction [4] [%],cleaved PARP positive nuclei fraction [5] [%],cleaved PARP positive nuclei fraction [6] [%],cleaved PARP positive nuclei fraction [7] [%],cleaved PARP positive nuclei fraction [8] [%],cleaved PARP positive nuclei fraction [9] [%],cleaved PARP positive nuclei fraction [10] [%],cleaved PARP positive nuclei fraction [11] [%],cleaved PARP positive nuclei fraction [12] [%],cleaved PARP positive nuclei fraction [13] [%],cleaved PARP positive nuclei fraction [14] [%],cleaved PARP positive nuclei fraction [15] [%],cleaved PARP positive nuclei fraction [16] [%]
"C=C(c1ccc(C(=O)O)cc1)c1cc2c(cc1C)C(C)(C)CCC2(C)C [Bexarotene] + O=C(O)C(=O)Nc1sc2c(c1C(=O)O)CCNC2 [TCS401] (first compound 2 µM, partner dose 1.66667 µM)",32.1,27.6,19.2,25.1,172,138,68.7,155,54.2,151,29.9,121,95.6,53.8,66.2,14.8
"Cc1cc(Nc2cc(N3CCN(C)CC3)nc(/C=C/c3ccccc3)n2)n[nH]1 + Oc1cc(-c2nc(-c3ccccc3)[nH]c2-c2ccncc2)ccc1Cl [L779450] (first compound 0.04 µM, partner dose 0.2 µM)",166,68.7,73.1,82.6,62.4,102,61.2,68.5,79.9,78.6,77,80.7,48.4,141,75.3,39.8
"O=C(O)c1ccc2c(c1)nc(Nc1cccc(Cl)c1)c1ccncc12 + CC(C)CCN1c2nc(Nc3cc(F)c(O)c(F)c3)ncc2N(C)C(=O)C1C [BID1870] (first compound 0.4 µM, partner dose 0.2 µM)",75.5,12.2,44.6,240,244,184,294,219,18.1,48.1,165,80.9,128,92.4,35.1,84.5
"C=C(c1ccc(C(=O)O)cc1)c1cc2c(cc1C)C(C)(C)CCC2(C)C [Bexarotene] + COc1ccc(-c2ccc3c(N4CCOCC4)nc(N4C[C@@H](C)O[C@@H](C)C4)nc3n2)cc1CO [KU0063794] (first compound 2 µM, partner dose 0.02 µM)",56,62.5,67.6,78.5,222,126,147,128,107,25.1,149,270,105,89.6,139,61.8
"Cc1cc(Nc2cc(N3CCN(C)CC3)nc(/C=C/c3ccccc3)n2)n[nH]1 + COc1ccc(COc2ccc(Cc3cnc(N)nc3N)cc2OC)cc1 [GW2580] (first compound 0.04 µM, partner dose 1 µM)",107,21,83.1,46,35.9,102,116,117,113,78.9,23.6,28.4,47.3,59.2,80.8,63.2
"C[C@@H](Oc1cc(-c2cnn(C3CCNCC3)c2)cnc1N)c1c(Cl)ccc(F)c1Cl [Crizotinib] + c1cc(-c2cnn3cc(-c4ccc(OCCN5CCCCC5)cc4)cnc23)ccn1 [Dorsomorphin] (first compound 0.2 µM, partner dose 0.4 µM)",244,27.3,89.3,55.9,309,106,84.1,72.4,64.5,48.8,126,131,47.1,130,219,92.9
"O=C(O)[C@@H]1[O][Sb](=[O])([O][Sb]2(=[O])[O][C@H]([C@H](O)CO)[C@H](O)[C@H](C(=O)O)[O]2)[O][C@H]([C@H](O)CO)[C@@H]1O (some centres undefined) [stibogluconate] + COc1ccc(-c2ccc3c(N4CCOCC4)nc(N4C[C@@H](C)O[C@@H](C)C4)nc3n2)cc1CO [KU0063794] (first compound 2 µM, partner dose 0.02 µM)",36.6,22.8,122,33.8,104,108,40.4,79.5,93.7,82.6,110,135,21.4,62.9,68.2,199
"Cc1cc(Nc2cc(N3CCN(C)CC3)nc(/C=C/c3ccccc3)n2)n[nH]1 + CCc1ccc(CCOc2ccc(CC3SC(=O)NC3=O)cc2)nc1 [pioglitazone] (first compound 0.04 µM, partner dose 2 µM)",130,43,361,191,370,99.7,135,105,179,98.8,129,19,43.5,157,64.7,90.2
"C[C@@H](Oc1cc(-c2cnn(C3CCNCC3)c2)cnc1N)c1c(Cl)ccc(F)c1Cl [Crizotinib] + CC(C)CCN1c2nc(Nc3cc(F)c(O)c(F)c3)ncc2N(C)C(=O)C1C [BID1870] (first compound 0.2 µM, partner dose 0.2 µM)",61.5,4.9,104,75.5,195,137,60.2,322,73.2,11.8,56.2,96.5,60.8,13.4,63.1,68.1
